Source: the supplement of paper PMC6119338
Some of the results follow. Repeats are few or missing, and single values can be far off.

What follows are compounds tested on Plasmodium berghei sporozoites (assay: residual sporozoite gliding motility relative to DMSO control; higher = less inhibition of motility). Details: 10 µM; incubation time 30 min.

Residual sporozoite gliding motility, > 50%:
Oc1ccc(Cl)cc1CNc1nc2ccccc2[nH]1
Cc1ccc(OCCCCCCNCCO)c(C)c1
COc1ccc2sc(N(Cc3cccnc3)C(=O)c3ccc(C#N)cc3)nc2c1
Cc1cc(N2CCCC2)nc(Nc2ccc(NC(=O)CCc3ccccc3)cc2)n1
COc1ccc(C2c3ccc4ccccc4c3Oc3ncn(CCCN(C)C)c(=N)c32)cc1 (stereo unspecified)
CC1CC2=C(CC1CNCCCN(C)C)C(C)(C)CCC2 (stereo unspecified)
CCOC(=O)C1=C(C)N=c2sc(=Cc3cc(Cl)ccc3O)c(=O)n2C1c1ccc(OC)cc1 (stereo unspecified)
c1ccc2c(NCCc3c[nH]c4ccccc34)c3ccccc3nc2c1
CN(C)CCNc1cc(-c2ccccc2)nc2ccccc12
Cc1cc(Nc2ccc3ccccc3c2)n2ncnc2n1
CN(C)c1ccc(-c2nc3cc(N)ccc3[nH]2)cc1
CCCCNc1nc(NC(C)(C)C)nc(NC(C)(C)C)n1
Cc1ccc(N2C(=O)C3C(C2=O)C2(c4ccccc4)C(=O)C3(c3ccccc3)C(c3ccccc3)=C2c2ccccc2)cc1 (stereo unspecified)
CCN(CC)CCn1c(=N)n(CC(O)c2ccc(Cl)c(Cl)c2)c2ccccc21 (stereo unspecified)
CC(C)(C)CC(C)(C)NCC(O)COc1ccc(Cl)cc1Cl (stereo unspecified)
Oc1ccc2ccccc2c1CNc1nc2ccccc2[nH]1

Two entries drawn at random from those above:
Residual sporozoite gliding motility, > 50%:
CC(C)(C)CC(C)(C)NCC(O)COc1ccc(Cl)cc1Cl (stereo unspecified)
CC1CC2=C(CC1CNCCCN(C)C)C(C)(C)CCC2 (stereo unspecified)
